The results in this text go back to paper PMC6967296.

Amino acid sequences for entries named in this document (tags omitted).
UniProt O95863: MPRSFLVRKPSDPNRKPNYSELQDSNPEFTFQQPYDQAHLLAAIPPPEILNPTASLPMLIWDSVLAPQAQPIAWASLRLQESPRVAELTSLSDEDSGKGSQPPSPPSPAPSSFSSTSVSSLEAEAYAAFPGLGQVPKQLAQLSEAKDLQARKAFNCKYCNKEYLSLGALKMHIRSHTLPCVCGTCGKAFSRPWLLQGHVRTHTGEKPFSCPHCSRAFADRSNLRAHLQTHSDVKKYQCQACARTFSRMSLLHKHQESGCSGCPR

The target in assay [1] is T1, Flag-USP37 (expressed in H1299 cells) (human) (UniProt Q86T82).
T1 sequence: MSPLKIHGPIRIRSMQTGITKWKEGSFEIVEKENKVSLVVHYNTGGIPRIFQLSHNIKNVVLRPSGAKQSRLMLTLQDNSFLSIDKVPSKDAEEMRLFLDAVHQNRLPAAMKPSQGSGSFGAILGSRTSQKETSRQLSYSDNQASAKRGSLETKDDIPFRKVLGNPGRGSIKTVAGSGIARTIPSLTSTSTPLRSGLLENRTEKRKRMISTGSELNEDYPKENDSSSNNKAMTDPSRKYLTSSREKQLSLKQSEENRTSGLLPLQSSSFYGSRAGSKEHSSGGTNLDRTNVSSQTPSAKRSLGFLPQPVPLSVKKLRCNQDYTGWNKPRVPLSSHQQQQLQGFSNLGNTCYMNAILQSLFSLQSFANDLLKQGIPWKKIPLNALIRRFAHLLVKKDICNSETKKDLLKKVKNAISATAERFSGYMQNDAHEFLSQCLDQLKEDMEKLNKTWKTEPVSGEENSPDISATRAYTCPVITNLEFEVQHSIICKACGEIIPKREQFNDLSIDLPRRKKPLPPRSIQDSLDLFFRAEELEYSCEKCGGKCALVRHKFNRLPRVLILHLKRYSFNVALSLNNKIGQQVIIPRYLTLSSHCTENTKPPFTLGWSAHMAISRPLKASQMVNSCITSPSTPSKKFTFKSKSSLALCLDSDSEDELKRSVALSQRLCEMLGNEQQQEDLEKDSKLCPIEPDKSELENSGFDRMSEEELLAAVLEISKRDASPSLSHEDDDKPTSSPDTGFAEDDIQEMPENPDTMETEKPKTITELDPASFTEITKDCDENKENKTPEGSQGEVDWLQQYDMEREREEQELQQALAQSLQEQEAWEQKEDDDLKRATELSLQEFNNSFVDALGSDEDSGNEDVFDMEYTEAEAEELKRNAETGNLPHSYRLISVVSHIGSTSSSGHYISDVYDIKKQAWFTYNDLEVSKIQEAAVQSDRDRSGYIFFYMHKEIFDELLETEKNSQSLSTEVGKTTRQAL
Nature of the assay: co-IP; Flag-USP37 transiently expressed in H1299 cells; precipitated with Flag antibody, endogenous Snail detected with anti-Snail antibody.

For another assay, the target named is T2, Flag-USP37 (human) (UniProt Q86T82).
T2 sequence: T1 sequence
The assay is described as follows: co-IP; both proteins transiently co-expressed in 293T cells; lysis 48 h post-transfection in 20 mM Tris-HCl pH 8.0, 150 mM NaCl, 2.5 mM EDTA, 0.5% NP40; precipitated with Flag-M2 beads, Western blot with HA or Myc antibody.

No constants are given. Whether binding was seen depends on the method and setting. In cells and extracts the contact can be indirect. Some results given as binding are weak or reduced against the parent protein; the word gives no strength. Where a sequence is shown, tags or fusion partners need not be part of it.

With “endogenous Snail protein (from UniProt O95863 1-264)”, in assay [1], the binding result is listed as “binds”. As to HA-Snail (from UniProt O95863 1-264), the binding entry in the assay with Flag-USP37 (human) is “binds”.
